# PubChem BioAssay AID1347076 (National Center for Advancing Translational Sciences (NCATS), 2019)
# The campaign covered roughly 400,000 compounds. About 13,000 (3.2%) were called active. Inconclusive results, whose numbers are uncertain, are shown with a selection of clear calls. The call rests on the fitted dose curve; in most records, active means well fitted cell-killing curve with a large enough effect; inconclusive means small, poorly fitted or top-dose-only effect, or effect the other way; inactive means flat fitted curve, though single readings scatter. Potencies of inconclusive entries are doubtful fits and often do not repeat.
# Experiment: qHTS assay for MDR1-selective chemotherapeutics: Primary screen using the drug-selected MDR subline cells KB-V1; further: nearly all actives have a fitted effect of over 60% in size
# Settings: KB-V1 MDR cells viability, CellTiter-Glo, 72 h; activity change, negative = cytotoxicity: at 46.1 µM (top of the series)
# How it was run: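 Cells of the MDR subline KB-V1 are plated, dosed with compound at multiple concentrations, and incubated 72 h at 37 degrees C; CellTiter-Glo is then added and luminescence read after 10 min.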
# On the % scale 0 is the no-effect control and ±100 the full control effect; potency means the concentration at half of the fitted maximal effect.
Structure (SMILES),Potency,"activity change, negative = cytotoxicity"
COc1cc(CNCc2cccs2)ccc1OCc1cccs1,"inconclusive: 5.8 µM [cytotoxic, full curve, poor fit]",
O=S(=O)(c1ccccc1)N1CCN(Cc2ccc(Cl)cc2)CC1,,inactive: -12.9%
O=C(NCc1ccccc1F)C(=O)NCC(c1ccc2c(c1)OCO2)N1CCOCC1 (centres undefined),,inactive: -2.1%
Nc1ncn([C@@H]2O[C@H](CO)[C@@H](O)[C@H]2O)c(=O)n1,"inconclusive: 25.9 µM [cytotoxic, single point]",
Cc1ccc(-n2nc(C(=O)N3CCN(c4ccccc4F)CC3)c(=O)n(C)c2=O)cc1,,inactive: 0%
CC1(Oc2cccc(C#N)c2)CCN(Cc2csc3ccccc23)C1 (centres undefined),,inactive: -14.6%
CCn1c(-c2ccc(C)cc2)n[nH]c1=S,active: 18.4 µM,
CC(=O)Nc1ccc(S(=O)(=O)N(C)c2ccc(OCCOc3ccccc3F)cc2)cc1,,inactive: -12.6%
COc1nc(NCCO)nc(Nc2cc(Cl)ccc2OC)n1,"inconclusive: 32.6 µM [cytotoxic, single point]",
O=C1NC(Cc2ccccc2)c2nc3ccc(F)cc3c(=O)n2-c2cc3ccccc3cc21 (centres undefined),active: 20.6 µM,
O=C(Nc1cc(S(=O)(=O)N2CCOCC2)ccc1N1CCOCC1)c1cnccn1,active: 10.3 µM,
COc1cc(CN2C[C@@H](CO)O[C@@H](n3cnc4c(NC5CC5)ncnc43)C2)cc(OC)c1OC,,inactive: 3.49%
Clc1ccccc1CSc1nnc(-c2ccccn2)n1Cc1ccco1,"inconclusive: 29.1 µM [cytotoxic, single point]",
COc1ccc(S(=O)(=O)Nc2cc(C(=O)NCCCOC(C)C)ccc2N2CCOCC2)cc1,"inconclusive: 7.31 µM [cytotoxic, partial curve, poor fit]",
Cn1c2c(c(O)c(-c3ccccc3)c1=O)C(=O)CC(C)(C)C2,,inactive: -12.5%
CN(Cc1nccn1C)C(=O)c1cc(COc2ccc3ncccc3c2)on1,,inactive: -25.6%
O=C(O)CCCC(=O)Nc1ccc(Oc2cccc(C(F)(F)F)c2)nc1,"inconclusive: 29.1 µM [rising, single point]",
CCC(=O)Nc1ccnc(-c2cccnc2)n1,,inactive: 2.08%
COc1cccc(OC)c1CN1CCCC(C(=O)c2ccccc2SC)C1 (centres undefined),"inconclusive: 20.6 µM [cytotoxic, single point]",
NNC(=O)CSc1nnnn1-c1ccccc1,,inactive: 15.8%
Cc1nn2c3c(cnc2c1-c1ccc(Cl)cc1)C(=O)CC(c1ccco1)C3 (centres undefined),active: 5.8 µM,
COc1ccccc1NS(=O)(=O)c1cccc(C(=O)N/N=C/c2ccc3c(c2)OCCO3)c1,"inconclusive: 32.6 µM [rising, single point]",
Cn1c(=O)c2[nH]c(Cc3ccsc3)nc2n(C)c1=O,,inactive: -1.87%
CCN(CC)c1ccc(S(=O)(=O)N2CCOCC2)cc1NC(=O)CNCc1cccc(Cl)c1,"inconclusive: 18.4 µM [cytotoxic, single point]",
CC(=O)NC(c1cccc(F)c1)c1nc(-c2ccccc2C)cs1 (centres undefined),"inconclusive: 23.1 µM [cytotoxic, single point]",

Structure (SMILES),Potency,"activity change, negative = cytotoxicity"
CC(=O)c1ccc(OCCCC(=O)NC2CCCc3ccccc32)cc1 (centres undefined),active: 16.4 µM,
COc1ccc(S(=O)(=O)n2nc(-c3ccco3)nc2NCc2ccc(C(C)C)cc2)cc1,,inactive: -13.2%
CCOC(=O)c1cnc(C(F)(F)F)nc1Oc1ccccc1,"inconclusive: 29.1 µM [rising, partial curve, poor fit]",
COc1ccc(CCNC2CC(=O)N(CCc3ccc(OC)c(OC)c3)C2=O)cc1OC (centres undefined),active: 18.4 µM,
CCOc1ccc(C(=O)Nc2ccc(OCc3cc(=O)n4cccc(C)c4n3)cc2)cc1,,inactive: 14.6%
O=CNc1ccc2c(c1)Cc1cc([N+](=O)[O-])ccc1-2,"inconclusive: 1.84 µM [cytotoxic, full curve, poor fit]",
Cc1csc(NC(=O)CN2CCCCCC2)n1,"inconclusive: 18.4 µM [rising, partial curve, poor fit]",
COc1ccc(NS(=O)(=O)c2ccc(N3CCN(CCO)CC3)c([N+](=O)[O-])c2)cc1,"inconclusive: 18.4 µM [cytotoxic, partial curve, poor fit]",
Cc1ccc(-c2nn(CC(=O)NCc3cc(-c4nn(C)c(=O)c5ccccc45)ccc3C)c(=O)c3ccccc23)cc1,active: 7.31 µM,
COc1cccc(NC(=O)Cn2c(=O)n(Cc3ccc(F)cc3)c(=O)c3sc4ccccc4c32)c1,,inactive: 10.2%
COc1ccc(-c2cc(-c3nc(-c4cc(OC)c(OC)c(OC)c4)no3)[nH]n2)c(OC)c1,"inconclusive: 23.1 µM [cytotoxic, partial curve, poor fit]",
CCN(C(=O)COC(=O)Cn1cnc2c1c(=O)n(C)c(=O)n2C)C1CCS(=O)(=O)C1 (centres undefined),,inactive: 0.984%
Cc1nc2ccccc2n1Cc1ccc(Cl)cc1,active: 7.31 µM,
CC(=O)C1=C(O)C(=O)N(c2ccc(Br)cn2)C1c1ccc(F)cc1 (centres undefined),"inconclusive: 16.4 µM [cytotoxic, single point]",
COc1ccc(C(=O)N2CCN(C(=O)c3ccc(-c4ccccc4)cc3)CC2)cc1OC,,inactive: -11.2%
Cc1cc(=O)oc2cc(OC(C(=O)O)c3ccccc3)ccc12 (centres undefined),,inactive: 12.3%
Brc1cnc(N2CCOCC2)nc1N1CCCCC1,"inconclusive: 23.1 µM [cytotoxic, partial curve]",
CC1CCN(Cc2nc3c(c(=O)n(C)c(=O)n3C)n2CCc2ccccc2)CC1,"inconclusive: 1.3 µM [cytotoxic, full curve]",
OCCCNc1cc(-c2ccnc(Nc3cccc(Cl)c3)n2)ccn1,active: 0.13 µM,
COc1ccc(N2CCN(C(=O)Cc3ncc(C(F)(F)F)cc3Cl)CC2)cc1,active: 20.6 µM,
Cc1ccc(-c2nnc(N3CC(C)OC(C)C3)c3ccccc23)cc1 (centres undefined),,inactive: 16.6%
O=C(NNc1c2ccccc2nc2ccccc12)c1cc2ccccc2cc1O,"inconclusive: 25.9 µM [cytotoxic, single point]",
COCCn1c(CN2CCC(Cc3ccccc3)CC2)nc2c1c(=O)n(C)c(=O)n2C,"inconclusive: 3.66 µM [cytotoxic, full curve]",
Cn1c(=O)n(Cc2ccccc2F)c(=O)c2c1nc1n2CCN1Cc1ccco1,"inconclusive: 10.3 µM [cytotoxic, partial curve, poor fit]",

# 3 compounds out of the list, sorted by molecular weight, low to high.
Structure (SMILES),Potency,"activity change, negative = cytotoxicity"
Cn1c(=O)n(Cc2ccccc2F)c(=O)c2c1nc1n2CCN1Cc1ccco1,"inconclusive: 10.3 µM [cytotoxic, partial curve, poor fit]",
COc1ccc(C(=O)N2CCN(C(=O)c3ccc(-c4ccccc4)cc3)CC2)cc1OC,,inactive: -11.2%
COc1ccc(-c2cc(-c3nc(-c4cc(OC)c(OC)c(OC)c4)no3)[nH]n2)c(OC)c1,"inconclusive: 23.1 µM [cytotoxic, partial curve, poor fit]",
